# Only a part is listed here, and it is no random draw. At the low end of the ranking, values are background and their order means little.
# Target: T1, ELF3 (UniProt P78545)
# T1 sequence: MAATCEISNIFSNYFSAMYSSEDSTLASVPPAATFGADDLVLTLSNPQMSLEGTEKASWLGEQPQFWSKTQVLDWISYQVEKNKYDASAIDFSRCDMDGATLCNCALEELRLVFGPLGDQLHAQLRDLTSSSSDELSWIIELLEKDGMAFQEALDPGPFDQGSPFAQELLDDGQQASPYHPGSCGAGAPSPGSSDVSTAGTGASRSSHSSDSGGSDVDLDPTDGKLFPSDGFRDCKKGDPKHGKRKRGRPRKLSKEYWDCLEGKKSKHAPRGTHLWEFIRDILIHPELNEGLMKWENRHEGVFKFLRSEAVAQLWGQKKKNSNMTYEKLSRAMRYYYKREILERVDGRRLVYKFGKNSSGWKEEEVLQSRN
# Assay: DAPPL (digital affinity profiling via proximity ligation, sequencing)
# Details: 10 mM Tris-HCl pH 7.5, 50 mM NaCl, 1 mM DTT, 4% glycerol, room temperature, 30 min; GST-TFs on glutathione beads, 16-mer random dsDNA library, 0.1% …; high values mean tight binding; double strand, one strand shown; scale: fold enrichment (6-mer frequency, TF over GST control)
row,Sequence,binding signal
1,GTCCCG,1.26
2,TGATTT,0.984
3,GCCACT,1.1
4,TGCTAG,1.34
5,CTCGGC,1.52
6,GCTCGA,1.24
7,ATTCGC,1.27
8,TTCGCT,1.26
9,TCGAGC,1
10,TTGGTT,1.23
11,TTCTAG,1.42
12,TGTAAG,1.3
13,TATATT,1.58
14,ACTATC,1.22
15,TAACTA,1.33
16,CGATAG,0.834
17,AAACGA,1.11
18,CTATGC,1.2
19,CACAAC,1.3
20,ATAAAG,1.02

row,Sequence,binding signal
1,CAGGAA,1.86
2,CCGCTT,2.08
3,GGCACT,1.29
4,GCTGGC,0.88
5,AGTTAA,1.09
6,AATCTA,1.04
7,TATCCC,1.83
8,GAACTT,1.5
9,TACAAT,1.36
10,GGTGTT,1.03
11,CCTATA,1.15
12,AATTGA,1.3
13,TGGCCC,0.949
14,GCTGCC,0.936
15,CGTTGT,0.992
16,TTTAAT,1.3
17,AGTATG,1.08
18,TATTGC,1.2
19,CCGACT,1.55

# Some of the entries so far, as tab-separated lines:
row	Sequence	binding signal
11	TTCTAG	1.42
12	TGTAAG	1.3
13	TATATT	1.58
14	ACTATC	1.22
15	TAACTA	1.33
16	CGATAG	0.834
17	AAACGA	1.11
18	CTATGC	1.2
19	CACAAC	1.3
20	ATAAAG	1.02
1	CAGGAA	1.86
2	CCGCTT	2.08

# From article PMC7862700
